Screening data, single-dose tests

Sequences of proteins named here, by UniProt entry; tags and fusion partners are left off.
UniProt P9WNZ1, whole entry: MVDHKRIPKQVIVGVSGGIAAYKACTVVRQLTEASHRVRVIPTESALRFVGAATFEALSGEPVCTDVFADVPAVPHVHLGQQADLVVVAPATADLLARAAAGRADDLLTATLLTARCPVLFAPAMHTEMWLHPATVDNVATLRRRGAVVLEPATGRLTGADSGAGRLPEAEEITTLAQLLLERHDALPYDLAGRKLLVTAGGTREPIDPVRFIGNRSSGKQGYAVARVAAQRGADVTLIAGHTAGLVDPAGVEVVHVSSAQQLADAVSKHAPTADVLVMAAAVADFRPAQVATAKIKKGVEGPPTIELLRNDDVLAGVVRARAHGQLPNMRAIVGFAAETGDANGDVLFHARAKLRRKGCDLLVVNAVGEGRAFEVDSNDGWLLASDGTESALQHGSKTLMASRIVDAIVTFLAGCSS

Data taken from ChEMBL document CHEMBL3988442, “University of Dundee, Small-Polar-MMV Screening Library” (2021).

Leishmania in macrophages: 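Cell assay of Leishmania donovani living inside macrophages; the read-out is not stated. Tested at 30 µM. Higher reads as stronger inhibition (inferred: compounds with an IC50 in retests scored well above the rest). About 69,000 compounds were tested under these conditions; 1.5% (about 1,000) showed 50% or more at least once.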
CoaBC: 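Coenzyme A biosynthesis protein CoaBC, Mycobacterium tuberculosis (UniProt P9WNZ1). Enzyme assay of CoaBC with a phosphate dye (Biomol Green) read at 650 nm. Compounds at 30 µM. Higher reads as stronger inhibition, judged from the few compounds that gave an IC50. Most strong results did not repeat in a second test. Size under these conditions: about 67,000 compounds, about 40 of them at 50% or above in at least one test.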

Values are the deposited “Percent Effect”, in %. How 0% and 100% were set is not recorded. Most values in the screen are low, and negative values occur. The compounds are a random part of those screened. Two or more numbers in one place are separate tests of the same structure; such repeats can differ widely. A dash means the value is not listed here; it may have been measured.

Result for CC(C)CCc1noc(C[S+]([O-])CC(=O)NCc2ccccc2)n1 (centres unmarked) was Leishmania in macrophages: -8.517%; CoaBC: 1.656%. For CCCN1CCCn2c(nc(CNC(=O)c3nccn3C)cc2=O)C1 the result was CoaBC: 4.583%. For O=C(Nc1ccc(F)cc1)C1CNCCN1C(=O)CC1CCCCC1 (centres unmarked) the result was Leishmania in macrophages: 31.81%; CoaBC: 0.9901%. For Cc1cccc(CNC(Cc2ccsc2)c2nccs2)n1 (centres unmarked) the result was Leishmania in macrophages: -12.47%; CoaBC: 4.895%. CNC(=O)[C@@]12CCO[C@@H]1CCN(S(=O)(=O)c1ccccc1F)C2 read CoaBC: 0.3708%. With CNS(=O)(=O)c1csc(C(=O)N(C)Cc2sccc2C)c1 the screen gave Leishmania in macrophages: -69.05%; CoaBC: 5.992%.

O=C(O)C(F)(F)F.[H][C@@]12CN(C(=O)COC)CCC[C@]1(C(=O)N(C)C)CN(c1ccccn1)C2 gave Leishmania in macrophages: 14.27%. Cc1cc(C2CCCN(S(=O)(=O)N(C)C)C2)ccn1 (centres unmarked) read Leishmania in macrophages: 11.64%; CoaBC: -9.693%. For [H][C@@]12C[C@@H](c3nc(C)no3)CN(S(C)(=O)=O)[C@]1([H])CCO2 the result was Leishmania in macrophages: 8.808%. Result for NC(=O)C1CCN(CCCNC(=O)Nc2nccs2)CC1 was Leishmania in macrophages: 34.85%; CoaBC: 7.654%. COC(=O)CCNC(=O)c1nc(NS(=O)(=O)c2ccccc2)sc1C read Leishmania in macrophages: -16.89%; CoaBC: -8.854%. Cc1occc1CNc1ncccc1S(N)(=O)=O read Leishmania in macrophages: -3.379%; CoaBC: 3.38%.

With COc1ccc(-c2n[nH]c(C)c2CC(=O)NCCN2CCOCC2)cc1 the screen gave Leishmania in macrophages: -10.63%; CoaBC: 0.3645%. Result for CCN(CC)Cc1cc(C(=O)N2CCC3(CC2)NCCNC3=O)c(C)o1 was Leishmania in macrophages: 1.621%; CoaBC: 1.613%. With Cc1cc(CN2CCC(c3nccn3C(C)C)CC2)ccc1F the screen gave Leishmania in macrophages: 49.2%; CoaBC: 2.538%. With CC(C(=O)NCCN1CCOCC1)n1cncn1 (centres unmarked) the screen gave Leishmania in macrophages: -10.84%; CoaBC: 2.738%. Result for CC(=O)N1CCOC(c2cncc(CCC(N)=O)n2)C1 (centres unmarked) was Leishmania in macrophages: 12.49%; CoaBC: 5.701%. Result for CN(C)c1ncc(-c2ccncc2)c(CCNC(=O)C2CC2)n1 was Leishmania in macrophages: 18.72%; CoaBC: -3.828%.

Result for O=c1cc(CN2CCCC2)nc2n1CCCN(S(=O)(=O)C1CC1)C2 was Leishmania in macrophages: -6.208%; CoaBC: 3.03%. For Cc1cnn(C2CN(Cc3nc(-c4ccsc4)no3)C2)c1 the result was Leishmania in macrophages: 9.335%; CoaBC: 1.161%. CC(O)CCN(C)S(=O)(=O)Cc1ccc(Cl)c(Cl)c1 (centres unmarked) gave Leishmania in macrophages: 23.75%; CoaBC: 1.914%. For Cc1cccc(CN2CCN(C(=O)c3cccnc3O)CC2)c1 the result was Leishmania in macrophages: 11.89%; CoaBC: 8.367%. CCOC(=O)CC(C)Nc1nc(C(C)(C)C)nc2c1cnn2C (centres unmarked) read Leishmania in macrophages: 4.465%; CoaBC: -2.948%. Result for CN(C)CCNC(=O)c1nc2c(o1)CN(c1ncccn1)C2 was Leishmania in macrophages: 30.18%.

CCS(=O)(=O)N1CCC2(CC1)CN(Cc1ccccn1)C(=O)CO2 gave CoaBC: 3.218%. With COc1ccccc1Cc1nnc(SCCS(C)(=O)=O)o1 the screen gave Leishmania in macrophages: 17.86%; CoaBC: 1.844%. [H][C@@]12COC[C@@H](Cc3nc(C)no3)[C@]1([H])CN(S(=O)(=O)CC)C2 read Leishmania in macrophages: 17.5%. With O=C(O)C(F)(F)F.O=C(O)C(F)(F)F.[H][C@@]12CCCO[C@]1([H])[C@@H](Oc1ncccc1F)CN2Cc1ccoc1 the screen gave Leishmania in macrophages: 9.385%. For O=S1(=O)COCCN1Cc1ccc(F)cc1Cl the result was Leishmania in macrophages: -7.367%; CoaBC: 0.8424%. With CCc1noc(CN2CCCN(Cc3cccs3)CC2)n1 the screen gave Leishmania in macrophages: 24.11%; CoaBC: 2.628%.

Result for CNc1ncc(C(=O)N[C@H]2CN(CCCSC)C[C@@H]2C2CC2)cn1 was Leishmania in macrophages: -24.3%; CoaBC: 8.732%. O=S(=O)(c1cc(F)ccc1F)N1CCCC1c1ccco1 (centres unmarked) read Leishmania in macrophages: 32.96%; CoaBC: 3.704%. CCCC(=O)N(C)Cc1nc(N2CCCC2)ncc1-c1ccncc1.Cl read Leishmania in macrophages: 14.9%. For Cc1cc(NC(=O)NCC2(O)CCCC2)ccn1 the result was Leishmania in macrophages: 5.753%; CoaBC: 5.725%. Cc1ncc(CN2CCOC(c3ccc(-c4ccccc4F)cn3)C2)s1 (centres unmarked) read Leishmania in macrophages: -36.46% and -7.418%; CoaBC: 2.433%. For Cc1cnn(CC(C)NCc2csc(-c3ncccn3)n2)c1 (centres unmarked) the result was Leishmania in macrophages: 27.95%; CoaBC: -4.198%.

For CCC(C)CN(C)C(=O)NCc1ccccc1-n1cccn1 (centres unmarked) the result was Leishmania in macrophages: 9.616%; CoaBC: 7.269%. CN(C)c1ccc2c(c1)CN(C(=O)c1c[nH]cn1)C2c1cnco1 (centres unmarked) read Leishmania in macrophages: -7.929%. O=C(c1cnccn1)N1CCC(F)(F)C2(CCN(c3ccccn3)C2)C1 (centres unmarked) read CoaBC: 13.26%. Result for CN(Cc1ncnn1C)C1CCN(c2sccc2C#N)C1=O (centres unmarked) was Leishmania in macrophages: -16.84%; CoaBC: 10%. With O=C(O)C(F)(F)F.O=C(O)C(F)(F)F.c1csc(CN2CCCn3cnc(CN4CCCC4)c3C2)c1 the screen gave Leishmania in macrophages: -5.318%.

The last 3 entries again:

SMILES	Leishmania in macrophages	CoaBC
O=C(c1cnccn1)N1CCC(F)(F)C2(CCN(c3ccccn3)C2)C1 (centres unmarked)	-	13.26%
CN(Cc1ncnn1C)C1CCN(c2sccc2C#N)C1=O (centres unmarked)	-16.84%	10%
O=C(O)C(F)(F)F.O=C(O)C(F)(F)F.c1csc(CN2CCCn3cnc(CN4CCCC4)c3C2)c1	-5.318%	-